Data as given in patent US20060216292A1.

Target: T1, TAP-tagged PTK7 (Homo sapiens (Human)) (UniProt Q13308)
T1 sequence: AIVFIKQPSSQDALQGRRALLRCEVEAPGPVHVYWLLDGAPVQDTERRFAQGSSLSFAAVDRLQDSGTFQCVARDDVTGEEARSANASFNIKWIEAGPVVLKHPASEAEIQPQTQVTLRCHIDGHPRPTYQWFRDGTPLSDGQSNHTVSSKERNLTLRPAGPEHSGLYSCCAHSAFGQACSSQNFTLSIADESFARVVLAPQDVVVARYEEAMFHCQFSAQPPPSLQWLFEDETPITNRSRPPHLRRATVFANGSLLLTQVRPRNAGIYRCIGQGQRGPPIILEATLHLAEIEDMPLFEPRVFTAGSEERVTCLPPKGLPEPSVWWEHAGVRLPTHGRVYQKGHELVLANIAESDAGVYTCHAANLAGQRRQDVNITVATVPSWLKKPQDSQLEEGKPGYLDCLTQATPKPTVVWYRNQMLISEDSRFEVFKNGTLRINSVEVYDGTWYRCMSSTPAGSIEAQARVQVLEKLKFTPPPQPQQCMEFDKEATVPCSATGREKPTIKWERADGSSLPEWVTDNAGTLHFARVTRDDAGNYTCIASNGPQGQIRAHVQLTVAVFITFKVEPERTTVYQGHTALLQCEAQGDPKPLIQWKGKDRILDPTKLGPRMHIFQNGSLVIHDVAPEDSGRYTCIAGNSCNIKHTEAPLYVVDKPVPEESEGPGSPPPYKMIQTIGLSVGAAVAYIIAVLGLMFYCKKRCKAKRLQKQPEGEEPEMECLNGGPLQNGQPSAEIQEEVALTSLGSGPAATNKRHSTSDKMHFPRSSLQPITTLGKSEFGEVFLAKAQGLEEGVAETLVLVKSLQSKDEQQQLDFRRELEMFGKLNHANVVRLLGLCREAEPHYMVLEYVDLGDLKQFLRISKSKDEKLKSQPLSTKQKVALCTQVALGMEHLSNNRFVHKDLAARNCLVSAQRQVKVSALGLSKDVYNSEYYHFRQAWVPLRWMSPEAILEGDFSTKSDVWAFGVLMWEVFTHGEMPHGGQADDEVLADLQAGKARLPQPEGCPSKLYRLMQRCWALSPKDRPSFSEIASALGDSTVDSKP
Assay: TAP purification of tagged bait, LC-MS/MS; novel interactor

binding: binds
Substance: HIFPH3/EGLN3 (enzyme)

Results are given in words; binding and its absence hold for the method and conditions named. Binding seen in cells or lysates may run through a third protein. A result given as binding can be weak or reduced; the word gives no strength. Where a sequence is shown, tags or fusion partners need not be part of it.
